According to publication PMC10539465:
Results are given in words; binding and its absence hold for the method and conditions named. In cells and extracts the contact can be indirect. Some binding calls cover weakened binding; strength is not graded here.

Amino acid sequences for entries named in this document (tags omitted). Residues count along the entry.
UniProt O95166: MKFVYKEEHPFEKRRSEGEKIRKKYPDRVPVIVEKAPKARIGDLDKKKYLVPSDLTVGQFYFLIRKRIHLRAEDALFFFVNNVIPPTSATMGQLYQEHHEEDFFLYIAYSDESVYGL
UniProt Q9BXW4, residues 1-126: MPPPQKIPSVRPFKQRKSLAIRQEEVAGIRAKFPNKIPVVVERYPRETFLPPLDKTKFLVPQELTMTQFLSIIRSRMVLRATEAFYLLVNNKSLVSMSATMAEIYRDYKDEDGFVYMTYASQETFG
UniProt P60520: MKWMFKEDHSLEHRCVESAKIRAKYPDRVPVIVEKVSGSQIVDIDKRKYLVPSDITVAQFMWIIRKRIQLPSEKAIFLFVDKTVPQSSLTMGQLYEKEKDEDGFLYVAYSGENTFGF
UniProt Q09472: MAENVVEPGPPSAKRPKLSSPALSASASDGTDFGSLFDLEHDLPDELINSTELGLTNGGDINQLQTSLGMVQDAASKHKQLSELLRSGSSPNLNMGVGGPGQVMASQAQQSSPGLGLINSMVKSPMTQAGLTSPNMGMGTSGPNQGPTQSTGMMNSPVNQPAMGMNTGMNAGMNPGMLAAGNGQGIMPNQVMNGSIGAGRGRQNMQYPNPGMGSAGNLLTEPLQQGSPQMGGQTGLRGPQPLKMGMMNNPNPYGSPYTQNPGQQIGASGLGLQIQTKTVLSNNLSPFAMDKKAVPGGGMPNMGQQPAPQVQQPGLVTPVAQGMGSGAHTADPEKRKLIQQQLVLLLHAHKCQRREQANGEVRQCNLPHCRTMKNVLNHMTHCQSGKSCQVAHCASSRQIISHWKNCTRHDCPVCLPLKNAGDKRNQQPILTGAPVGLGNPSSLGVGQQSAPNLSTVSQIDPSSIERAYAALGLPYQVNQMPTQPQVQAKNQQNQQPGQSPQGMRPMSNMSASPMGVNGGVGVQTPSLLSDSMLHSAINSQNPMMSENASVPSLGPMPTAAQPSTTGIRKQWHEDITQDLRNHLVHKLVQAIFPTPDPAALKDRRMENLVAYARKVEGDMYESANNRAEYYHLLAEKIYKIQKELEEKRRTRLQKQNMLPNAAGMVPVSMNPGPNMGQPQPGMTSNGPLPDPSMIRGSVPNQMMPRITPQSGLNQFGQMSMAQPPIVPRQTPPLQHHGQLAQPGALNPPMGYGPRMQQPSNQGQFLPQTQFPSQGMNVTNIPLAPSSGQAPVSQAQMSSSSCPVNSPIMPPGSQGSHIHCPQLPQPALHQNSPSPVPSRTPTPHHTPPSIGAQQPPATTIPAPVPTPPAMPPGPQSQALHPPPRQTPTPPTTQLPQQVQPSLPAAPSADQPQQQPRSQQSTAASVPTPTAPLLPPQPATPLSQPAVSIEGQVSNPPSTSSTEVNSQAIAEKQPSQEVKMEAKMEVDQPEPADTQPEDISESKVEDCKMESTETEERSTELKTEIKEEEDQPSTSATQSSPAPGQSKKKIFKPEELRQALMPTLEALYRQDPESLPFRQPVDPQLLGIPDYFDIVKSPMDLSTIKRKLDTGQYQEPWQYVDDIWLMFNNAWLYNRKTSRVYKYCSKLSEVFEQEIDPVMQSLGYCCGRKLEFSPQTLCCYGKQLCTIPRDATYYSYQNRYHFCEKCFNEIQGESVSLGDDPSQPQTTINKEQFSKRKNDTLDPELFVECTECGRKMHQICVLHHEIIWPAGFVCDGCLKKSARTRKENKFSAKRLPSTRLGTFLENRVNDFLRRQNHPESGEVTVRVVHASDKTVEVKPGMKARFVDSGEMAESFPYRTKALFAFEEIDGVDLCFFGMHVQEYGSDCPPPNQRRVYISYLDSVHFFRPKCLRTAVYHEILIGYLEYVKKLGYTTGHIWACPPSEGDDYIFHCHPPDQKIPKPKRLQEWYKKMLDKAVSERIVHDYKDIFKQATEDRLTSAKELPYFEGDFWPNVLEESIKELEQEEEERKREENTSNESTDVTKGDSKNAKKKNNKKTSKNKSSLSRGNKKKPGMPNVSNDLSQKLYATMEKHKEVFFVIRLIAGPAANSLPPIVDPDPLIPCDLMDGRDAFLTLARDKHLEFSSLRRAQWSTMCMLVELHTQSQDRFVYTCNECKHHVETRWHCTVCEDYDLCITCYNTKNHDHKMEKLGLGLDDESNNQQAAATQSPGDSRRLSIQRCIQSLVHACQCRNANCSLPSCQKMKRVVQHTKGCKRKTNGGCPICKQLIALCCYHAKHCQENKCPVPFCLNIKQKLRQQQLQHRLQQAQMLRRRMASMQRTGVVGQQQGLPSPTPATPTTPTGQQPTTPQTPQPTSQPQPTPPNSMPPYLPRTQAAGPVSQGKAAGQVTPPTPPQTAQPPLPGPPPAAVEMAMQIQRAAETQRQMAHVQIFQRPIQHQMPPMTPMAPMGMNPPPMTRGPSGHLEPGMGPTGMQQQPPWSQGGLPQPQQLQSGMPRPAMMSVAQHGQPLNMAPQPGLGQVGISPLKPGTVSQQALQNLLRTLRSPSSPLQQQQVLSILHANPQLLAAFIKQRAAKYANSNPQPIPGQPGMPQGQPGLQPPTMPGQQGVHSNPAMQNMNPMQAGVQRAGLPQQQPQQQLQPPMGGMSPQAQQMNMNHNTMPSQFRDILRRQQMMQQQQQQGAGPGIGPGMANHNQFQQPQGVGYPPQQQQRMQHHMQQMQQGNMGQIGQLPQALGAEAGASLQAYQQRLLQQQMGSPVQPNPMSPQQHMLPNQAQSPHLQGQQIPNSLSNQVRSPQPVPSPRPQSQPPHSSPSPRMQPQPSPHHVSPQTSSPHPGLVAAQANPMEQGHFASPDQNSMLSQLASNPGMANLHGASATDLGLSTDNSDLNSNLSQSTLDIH

What was measured:
[1] = biological target: GST-tagged GABARAB (UniProt O95166); experiment: pull-down; purified GST-fused proteins and GST-agarose mixed with lysate (450 μg protein, diluted to 150 mM NaCl) of H1299 cells transfected with TRIM25, overnight at 4°C; TRIM25 by Western blot; only the target purified
[2] = biological target: GST-tagged LC3C (UniProt Q9BXW4); experiment: as above
[3] = biological target: GST-tagged LC3A (UniProt Q9H492); experiment: as above
[4] = biological target: GST-tagged GABA-L2 (UniProt P60520); experiment: as above
[5] = biological target: p62-SQMT (human (endogenous in MCF7)) (UniProt Q13501); experiment: co-IP; MCF7 cells (non-targeted and TRIM25 knock-out) cross-linked with formaldehyde, quenched with glycine; p62-SQMT precipitated from 2 mg lysate (50 mM Tris 7.4, 20 mM NaCl, 10 mM MgCl2, 0.5% Igepal CA-630); p300 and TRIM25 by Western blot
[6] = biological target: HA-tagged p300 (UniProt Q09472); experiment: co-IP; HEK293T cells transfected with HA-p300 and TRIM25, lysed in RIPA buffer 48 h after transfection; p300 precipitated from 500 μg lysate, IgG as control; TRIM25 by Western blot

- binding [1]: binds
- binding [2]: binds
- binding [3]: binds
- binding [4]: binds
- binding [5]: binds weakly
- binding [6]: binds
Substance: TRIM25 (from UniProt Q14258 1-630)
